Measurements: the supplement of paper PMC2577665
± gives the standard deviation of the averaged measurements. The data scatter; read single values as rough.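 Every well combined ERalpha-negative HeLa cells, transfected ERalpha, a two-estrogen-response-element reporter, and overexpression of a single poorly characterized human cDNA. Any gene lowering the signal to at most the BRCA1 positive control level, about 0.6 of empty vector, was called a repressor hit.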

What follows are sequences tested on ERE-luciferase reporter with exogenous ERalpha in HeLa cells (assay: relative ERE luciferase activity (Firefly/Renilla) upon cDNA overexpression, relative to empty vector (fold of empty vector); higher = stronger ERalpha transactivation (less repression)). Conditions: 17beta-estradiol: 10 nM; 12 h.

Row | Sequence | relative ERE luciferase activity
1 | MKHTQSGQSTSPLVIDYTCRVCQMAFVFSSLIPLLLMTPVFCLGNTSECFQNFSQSHKCILMHSPPSAMAELPPSANTSVCSTLYFYGIAIFLGSFVLSLLTIMVLLIRAQTLYKKFVKSTGFLGSEQWAVIHIVDQRVRFYPVAFFCCWGPAVILMIIKLTKPQDTKLHMALYVLQALTATSQGLLNCGVYGWTQHKFHQLKQEARRDADTQTPLLCSQKRFYSRGLNSLESTLTFPASTSTIF [TMEM116] | 1.17 ± 0.14
2 | MKITRQKHAKKHLGFFRNNFGVREPYQILLDGTFCQAALRGRIQLREQLPRYLMGETQLCTTRCVLKELETLGKDLYGAKLIAQKCQVRNCPHFKNAVSGSECLLSMVEEGNPHHYFVATQDQNLSVKVKKKPGVPLMFIIQNTMVLDKPSPKTIAFVKAVESGQLVSVHEKESIKHLKEEQGLVKNTEQSRRKKRKKISGPNPLSCLKKKKKAPDTQSSASEKKRKRKRIRNRSNPKVLSEKQNAEGE [C8orf53] | 1.08
3 | MKLPARVFFTLGSRLPCGLAPRRFFSYGTKILYQNTEALQSKFFSPLQKAMLPPNSFQGKVAFITGGGTGLGKGMTTLLSSLGAQCVIASRKMDVLKATAEQISSQTGNKVHAIQCDVRDPDMVQNTVSELIKVAGHPNIVINNAAGNFISPTERLSPNAWKTITDIVLNGTAFVTLEIGKQLIKAQKGAAFLSITTIYAETGSGFVVPSASAKAGVEAMSKSLAAEWGKYGMRFNVIQPGPIKTKGAFSRLDPTGTFEKEMIGRIPCGRLGTVEELANLAAFLCSDYASWINGAVIKFDGGEEVLISGEFNDLRKVTKEQWDTIEELIRKTKGS [DECR1] | 1.18 ± 0.028
4 | MKPLVLLVALLLWPSSVPAYPSITVTPDEEQNLNHYIQVLENLVRSVPSGEPGREKKSNSPKHVYSIASKGSKFKELVTHGDASTENDVLTNPISEETTTFPTGGFTPEIGKKKHTESTPFWSIKPNNVSIVLHAEEPYIENEEPEPEPEPAAKQTEAPRMLPVVTESSTSPYVTSYKSPVTTLDKSTGIGISTESEDVPQLSGETAIEKPEEFGKHPESWNNDDILKKILDINSQVQQALLSDTSNPAYREDIEASKDHLKRSLALAAAAEHKLKTMYKSQLLPVGRTSNKIDDIETVINMLCNSRSKLYEYLDIKCVPPEMREKAATVFNTLKNMCRSRRVTALLKVY [SPESP1] | 1.16
5 | MKPVKHLLTTSNKSANVPALTTKKGLHNLPLSPELKEKHNAKLIHDKIEPMVLRSPPTGESILRYALPIPSSKTKNLLPEDEMIGKIIKHLKMVVSTLEETYGHCDQNGEEPFVKHEHEELSLSVGDDMNSFLTYCSQFAAQLEEALKEEQNILESLFKWFQWQVNQMEEISKDQTLLQAEPPKPDKTVILNIAEIVRLVQRFEELKNRLKQRSKSSVKVMLSKTMDKENRPEAVKSCEALAQKIEEFLEAHSTDEFKDVSATEPQTAHSMTNRFNAMLKVFENQANMLERAVNDQVLLDAEYKQMQCDFQLLSEEKLVLENELQKLKDKEKTKPTNNRTKKAVKTVKKKDKGKSEDSEKKMSPEKEFKIKEDLDQVQKVARLEIENKVLQEQLKQALQEAEKAKHQLNYFLNQEKLLKSEGKTETTMQVGNSQTKVKGEDSKNIPLEKETRKSLVSDSGGQRTSDKIQEYPQITAQSGRLIEKSSEKKRSSPAISDLSQILKSQDESAFLESSNEVSVAENQSYKSPSETHDKSLTTVSSSKEVQDSLSVGTLAQKNETVISPFILPPVLTESKKADVSEEQLQKMTEEQTYQAAEKSQADSEVPDENLMVENKDSVTKVQIEQMKQRTSSMERHEETLTTPQLPEDMVLVSRIQSETKNLKATRNESFHSHNDVPEENLMLEQDTKSKTEVEVKKQKSFQDNQLSTHNEVPNERLVVEHQESLSKTKLQIKKQETSTEQPLTTPDKEPNENLILRHQDSMSKSEMQVKEQRTLKGQRIITHDEEPGKNLVLEHQDSVSKLEMQIEKTKKLPREKRHSTHDEESGENPMLKHQDSVSKIQVQLEIQETSEGEGRSIPDKNSMFVHQDSVSKLQMQEKKKITPGRERRNTRIVVPNENVISVHQDSKSKLQMQEKKQINSGVERHKTFPLEIKKKDISLEHLLPEEKVLLSRSESQTKKLQAKVTSRKIKNEAASELPDTAENLPAMYPSISDLIIQFDLNKVVETDIESLRGALGRRLLNDEFKTQSKSFPGPDIEQLTDAFGRDILKDEFKTRSKSLPETDERLHSTTERGTINDAIKTQLKRKSYPETVLKHLKGVNGKDIIKHLINIQSKSHGETDKEHLADDTGRGIIKGSINAQLKGHQKTDKNFFAYATGRGLMKESTTTQLKSHPETDKEFLADAIGRGIIIGPITTQLKSHRETDKELLKDAIGRDIIKGPISAQLKSHQETDVEPLTNAIGSSKTIGEIKTQLRTHYDVNLFKNKDMSVQRQEGIFTRSITPSKFPTKVINLSPFENKEETYEYSSPYVTAPSKAIYRTYRAGPSFSKDIHLPLLNQLPSGHSKVVTLSQKTIEFTLPTVTNTVGKPTYKVLHAAARKSVPHPYF [CCDC7] | 0.952 ± 0.069
6 | MKSSDIDQDLFTDSYCKVCSAQLISESQRVAHYESRKHASKVRLYYMLHPRDGGCPAKRLRSENGSDADMVDKNKCCTLCNMSFTSAVVADSHYQGKIHAKRLKLLLGEKTPLKTTATPLSPLKPPRMDTAPVVASPYQRRDSDRYCGLCAAWFNNPLMAQQHYDGKKHKKNAARVALLEQLGTTLDMGELRGLRRNYRCTICSVSLNSIEQYHAHLKGSKHQTNLKNK [ZMAT4] | 1.02 ± 0.12
7 | MKTVKEKKECQRLRKSAKTRRVTQRKPSSGPVCWLCLREPGDPEKLGEFLQKDNISVHYFCLILSSKLPQRGQSNRGFHGFLPEDIKKEAARASRKICFVCKKKGAAINCQKDQCLRNFHLPCGQERGCLSQFFGEYKSFCDKHRPTQNIQHGHVGEESCILCCEDLSQQSVENIQSPCCSQAIYHRKCIQKYAHTSAKHFFKCPQCNNRKEFPQEMLRMGIHIPDRDAAWELEPGAFSDLYQRYQHCDAPICLYEQGRDSFEDEGRWCLILCATCGSHGTHRDCSSLRSNSKKWECEECSPAAATDYIPENSGDIPCCSSTFHPEEHFCRDNTLEENPGLSWTDWPEPSLLEKPESSRGRRSYSWRSKGVRITNSCKKSK [PHF7] | 0.514
8 | MLFIFPLSLPWRPSCWKESCSTGQRQAGRSREDSVTPPPSSPWPTPPAGAMSTKQEARRDEGEARTRGQEAQLRDRAHLSQQRRLKQATQFLHKDSADLLPLDSLKRLGTSKDLQPRSVIQRRLVEGNPNWLQGEPPRMQDLIHGQESRRKTSRTEIPALLVNCKCQDQLLRVAVDTGTQYNRISAGCLSRLGLEKRVLKASAGDLAPGPPTQVEQLELQLGQETVVCSAQVVDAESPEFCLGLQTLLSLKCCIDLEHGVLRLKAPFSELPFLPLYQEPGQ [NRIP2] | 1.05
9 | MLFWHTQPEHYNQHNSGSYLRDVLALPIFKQEEPQLSPENEARLPPLQYVLCAATSPAVKLHEETLTYLNQGQSYEIRLLENRKLGDFQDLNTKYVKSIIRVVFHDRRLQYTEHQQLEGWRWSRPGDRILDIDIPLSVGILDPRASPTQLNAVEFLWDPAKRASAFIQVHCISTEFTPRKHGGEKGVPFRVQIDTFKQNENGEYTEHLHSASCQIKVFKPKGADRKQKTDREKMEKRTAQEKEKYQPSYETTILTECSPWPDVAYQVNSAPSPSYNGSPNSFGLGEGNASPTHPVEALPVGSDHLLPSASIQDAQQWLHRNRFSQFCRLFASFSGADLLKMSRDDLVQICGPADGIRLFNAIKGRNVRPKMTIYVCQELEQNRVPLQQKRDGSGDSNLSVYHAIFLEELTTLELIEKIANLYSISPQHIHRVYRQGPTGIHVVVSNEMVQNFQDESCFVLSTIKAESNDGYHIILKCGL [TFCP2L1] | 0.874
10 | MLITVYCVRRDLSEVTFSLQVSPDFELRNFKVLCEAESRVPVEEIQIIHMERLLIEDHCSLGSYGLKDGDIVVLLQKDNVGPRAPGRAPNQPRVDFSGIAVPGTSSSRPQHPGQQQQRTPAAQRSQGLASGEKVAGLQGLGSPALIRSMLLSNPHDLSLLKERNPPLAEALLSGSLETFSQVLMEQQREKALREQERLRLYTADPLDREAQAKIEEEIRQQNIEENMNIAIEEAPESFGQVTMLYINCKVNGHPLKAFVDSGAQMTIMSQACAERCNIMRLVDRRWAGVAKGVGTQRIIGRVHLAQIQIEGDFLQCSFSILEDQPMDMLLGLDMLRRHQCSIDLKKNVLVIGTTGTQTYFLPEGELPLCSRMVSGQDESSDKEITHSVMDSGRKEH [DDI1] | 1.11
11 | MLPGVGVFGTSLTARVIIPLLKDEGFAVKALWGRTQEEAEELAKEMSVPFYTSRIDEVLLHQDVDLVCINLPPPLTRQIAVKTLGIGKNVICDRTATPLDAFRMTSAAHYYPKLMSIMGNVLRFLPAFVRMKQLIEEGYVGEPLVCEVQVHGGSLLGKKYNWSCDDLMGGGGLHSVGTYIIDLLTFLTGQKAVKVHGLLKTFVKQTDHIKGIRQITSDDFCTFQMVLEGGVCCTVTLNFNVPGEFKQDVTVVGSAGRLLAVGTDLYGQRNSAPEQELLVQDATPVSNSLLPEKAFSDIPSPYLRGTIKMMQAVRQAFQDQDDRRTWDGRPLTMAATFDDCLYALCVVDTIKRSSQTGEWQNIAIMTEEPELSPAYLISEAMRRSRMSLYC [GFOD1] | 0.978
12 | MLSARDRRDRHPEEGVVAELQGFAVDKAFLTSHKGILLETELALTLIIFICFTASISAYMAAALLEFFITLAFLFLYATQYYQRFDRINWPCLLQGHGQSGGPHPLDLLSHSAKVQPQPWPGLTPPGWHTPAAVPWVPAPAPGFWSWLLWFICFHSLGSSDFLRCVSAIIIFLVVSFAAVTSRDGAAIAAFVFGIILVSIFAYDAFKIYRTEMAPGASQGDQQ [CMTM5] | 1.83
13 | MLSLDFLDDVRRMNKRQLYYQVLNFGMIVSSALMIWKGLMVITGSESPIVVVLSGSMEPAFHRGDLLFLTNRVEDPIRVGEIVVFRIEGREIPIVHRVLKIHEKQNGHIKFLTKGDNNAVDDRGLYKQGQHWLEKKDVVGRARGFVPYIGIVTILMNDYPKFKYAVLFLLGLFVLVHRE [SEC11A] | 1.12
14 | MLSLKLPRLFSIDQIPQVFHEQGILFGYRHPQSSATACILSLFQMTNETLNIWTHLLPFWFFAWRFVTALYMTDIKNDSYSWPMLVYMCTSCVYPLVSSCAHTFSSMSKNARHICYFLDYGAVNLFSLGSAIAYSAYTFPDALMCTTFHDYYVALAVLNTILSTGLSCYSRFLEIQKPRLCKVIRVLAFAYPYTWDSLPIFYRLFLFPGESAQNEATSYHQKHMIMTLLASFLYSAHLPERLAPGRFDYIGHSHQLFHVCVILATHMQMEAILLDKTLRKEWLLATSKPFSFSQIAGAILLCIIFSLSNIIYFSAALYRIPKPELHKKET [PAQR5] | 1.05
15 | MLSRLMSGSSRSLEREYSCTVRLLDDSEYTCTIQRDAKGQYLFDLLCHHLNLLEKDYFGIRFVDPDKQRHWLEFTKSVVKQLRSQPPFTMCFRVKFYPADPAALKEEITRYLVFLQIKRDLYHGRLLCKTSDAALLAAYILQAEIGDYDSGKHPEGYSSKFQFFPKHSEKLERKIAEIHKTELSGQTPATSELNFLRKAQTLETYGVDPHPCKDVSGNAAFLAFTPFGFVVLQGNKRVHFIKWNEVTKLKFEGKTFYLYVSQKEEKKIILTYFAPTPEACKHLWKCGIENQAFYKLEKSSQVRTVSSSNLFFKGSRFRYSGRVAKEVMESSAKIKREPPEIHRAGMVPSRSCPSITHGPRLSSVPRTRRRAVHISIMEGLESLRDSAHSTPVRSTSHGDTFLPHVRSSRTDSNERVAVIADEAYSPADSVLPTPVAEHSLELMLLSRQINGATCSIEEEKESEASTPTATEVEALGGELRALCQGHSGPEEEQVNKFVLSVLRLLLVTMGLLFVLLLLLIILTESDLDIAFFRDIRQTPEFEQFHYQYFCPLRRWFACKIRSVVSLLIDT [FRMD5] | 1.13
